No constants are given. Whether binding was seen depends on the method and setting. In cells and extracts the contact can be indirect. Some entries that bind do so weakly or less than the wild type.
Biological target: T1, SIRT1 (sirtuin 1) (rat (endogenous in primary neonatal rat cardiomyocytes))
T1 sequence: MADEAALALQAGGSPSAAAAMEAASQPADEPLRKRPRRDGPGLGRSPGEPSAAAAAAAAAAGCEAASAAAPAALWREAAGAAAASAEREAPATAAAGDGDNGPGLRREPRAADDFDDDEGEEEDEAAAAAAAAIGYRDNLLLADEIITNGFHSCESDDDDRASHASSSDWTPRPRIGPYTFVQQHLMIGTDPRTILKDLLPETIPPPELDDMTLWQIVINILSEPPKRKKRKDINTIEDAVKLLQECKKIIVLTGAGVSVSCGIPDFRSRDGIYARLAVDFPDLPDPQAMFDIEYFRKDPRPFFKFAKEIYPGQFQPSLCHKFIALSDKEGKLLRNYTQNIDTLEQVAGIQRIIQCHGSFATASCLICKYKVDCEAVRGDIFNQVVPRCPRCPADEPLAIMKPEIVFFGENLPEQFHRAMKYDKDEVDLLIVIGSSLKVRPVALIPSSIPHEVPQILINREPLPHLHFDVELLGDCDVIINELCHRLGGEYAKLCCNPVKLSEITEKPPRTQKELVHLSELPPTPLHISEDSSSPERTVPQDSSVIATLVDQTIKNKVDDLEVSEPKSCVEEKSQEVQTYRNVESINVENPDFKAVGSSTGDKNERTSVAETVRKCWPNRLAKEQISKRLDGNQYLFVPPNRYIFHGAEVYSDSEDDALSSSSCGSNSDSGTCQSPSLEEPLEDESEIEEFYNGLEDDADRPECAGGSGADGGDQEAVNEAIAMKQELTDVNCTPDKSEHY
Assay: co-IP; cardiomyocyte lysates (cells transfected with negative control or si-SIRT1) precipitated with anti-SIRT1 antibody overnight at 4 °C, protein A/G magnetic beads, three washes with lysis buffer; immunoblot for SIRT1 and GATA4

Protein sequences, listed by entry. Tags and fused reporters are not part of them.
UniProt P46152: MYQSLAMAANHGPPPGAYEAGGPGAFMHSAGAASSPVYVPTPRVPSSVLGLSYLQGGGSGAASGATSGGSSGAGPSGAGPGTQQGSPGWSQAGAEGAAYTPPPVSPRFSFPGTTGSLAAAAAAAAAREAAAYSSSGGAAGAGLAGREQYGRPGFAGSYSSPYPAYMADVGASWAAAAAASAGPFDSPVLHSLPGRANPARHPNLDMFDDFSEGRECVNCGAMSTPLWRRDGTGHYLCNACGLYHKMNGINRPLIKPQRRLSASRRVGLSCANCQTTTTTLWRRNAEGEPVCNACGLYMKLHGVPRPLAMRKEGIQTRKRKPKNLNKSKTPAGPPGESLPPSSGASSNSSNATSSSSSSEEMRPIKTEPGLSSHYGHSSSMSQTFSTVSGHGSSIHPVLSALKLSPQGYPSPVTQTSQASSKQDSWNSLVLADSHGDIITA

For GATA4 (from UniProt P46152 1-440), the binding was “binds”.
